Here are results for one molecule from publication PMC9706590.

Protein sequences, listed by entry. Tags and fused reporters are not part of them.
UniProt P22626: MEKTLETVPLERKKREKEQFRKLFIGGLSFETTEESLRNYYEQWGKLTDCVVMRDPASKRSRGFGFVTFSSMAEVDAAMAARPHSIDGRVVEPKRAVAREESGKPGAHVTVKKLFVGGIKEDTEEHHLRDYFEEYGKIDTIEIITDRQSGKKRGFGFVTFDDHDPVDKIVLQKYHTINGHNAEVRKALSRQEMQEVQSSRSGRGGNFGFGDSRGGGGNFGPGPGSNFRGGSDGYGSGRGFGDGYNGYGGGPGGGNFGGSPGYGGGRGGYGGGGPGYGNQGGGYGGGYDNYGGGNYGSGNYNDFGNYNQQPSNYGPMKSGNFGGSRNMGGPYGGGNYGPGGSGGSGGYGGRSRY

The target of the assay is heterogeneous nuclear ribonucleoprotein A2B1 (human (endogenous in RPMI8226)) (UniProt P22626). Kind of assay: co-IP; endogenous proteins in RPMI8226 myeloma cell lysates; immunoprecipitated with anti-DGCR8 or anti-hnRNPA2B1 antibody, detected by Western blot.

These are yes or no findings as the source states them, for the method shown. In cells and extracts the contact can be indirect. Some results given as binding are weak or reduced against the parent protein; the word gives no strength.

B1: DiGeorge syndrome critical region 8 (protein, UniProt Q8WYQ5 1-773)
chain: METDESPSPLPCGPAGEAVMESRARPFQALPREQSPPPPLQTSSGAEVMDVGSGGDGQSELPAEDPFNFYGASLLSKGSFSKGRLLIDPNCSGHSPRTARHAPAVRKFSPDLKLLKDVKISVSFTESCRSKDRKVLYTGAERDVRAECGLLLSPVSGDVHACPFGGSVGDGVGIGGESADKKDEENELDQEKRVEYAVLDELEDFTDNLELDEEGAGGFTAKAIVQRDRVDEEALNFPYEDDFDNDVDALLEEGLCAPKKRRTEEKYGGDSDHPSDGETSVQPMMTKIKTVLKSRGRPPTEPLPDGWIMTFHNSGVPVYLHRESRVVTWSRPYFLGTGSIRKHDPPLSSIPCLHYKKMKDNEEREQSSDLTPSGDVSPVKPLSRSAELEFPLDEPDSMGADPGPPDEKDPLGAEAAPGALGQVKAKVEVCKDESVDLEEFRSYLEKRFDFEQVTVKKFRTWAERRQFNREMKRKQAESERPILPANQKLITLSVQDAPTKKEFVINPNGKSEVCILHEYMQRVLKVRPVYNFFECENPSEPFGASVTIDGVTYGSGTASSKKLAKNKAARATLEILIPDFVKQTSEEKPKDSEELEYFNHISIEDSRVYELTSKAGLLSPYQILHECLKRNHGMGDTSIKFEVVPGKNQKSEYVMACGKHTVRGWCKNKRVGKQLASQKILQLLHPHVKNWGSLLRMYGRESSKMVKQETSDKSVIELQQYAKKNKPNLHILSKLQEEMKRLAEEREETRKKPKMSIVASAQPGGEPLCTVDV
As for B1, the binding entry is on record as “binds”.
